Source: PubChem BioAssay AID504786 (Drosophila RNAi Screening Center, 2011)
Aim: 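Knock-downs reducing HIF reporter induction by the iron chelator DFO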 (primary screen). Cell system: Drosophila S2 cells with a stable HIF luciferase reporter. Reagents: long dsRNA against Drosophila genes, about 0.2 µg dsRNA per well of a 384-well plate. Duration: three days of knock-down, then 20 h of DFO before reading. Treatment: desferrioxamine (DFO) at 100 µM, an iron chelator that mimics hypoxia, for 20 h. Measured: 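HIF reporter luminescence in cells given 100 µM DFO for 20 h, using the mouse ldh-a hypoxia-response element, scored as per-plate z-scores; higher means greater loss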. Scale: z-score: higher = stronger loss of HIF reporter signal.
The screen tested about 21,000 reagents; shown is a random part of those that have a named target and a result. 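Primary screen; positive scores mean lost reporter signal, so the sign may be inverted from the usual convention.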 Reagents against one gene are numbered here. A plus sign joins genes that one reagent is predicted to hit.

no.	Gene	reagent no.	z-score, replicate 1	z-score, replicate 2	z-score, replicate 3	z-score, replicate 4
1	fs(1)Ya	1	0.2	-0.6		
2	Cp7Fa	1	-0.2	-0.2		
3	Cp7Fa	2	-0.3	-0.5		
4	dgo	1	-0.3	-0.5		
5	CG6048	1	-0.3	-0.5		
6	GC	1	-0.2	-0.1		
7	CG16743	1	0.9	0.5		
8	CG9993	1	-0.1	-0.1		
9	CG9254	1	-0.3	-0.3		
10	CG4666	1	-0.3	-0.5		
11	CG31789	1	0.7	0.1		
12	CG16837	1	-0.2	-0.6		
13	CG34165	1	-0.2	3.7	3.6	5
14	Smyd5	1	0.5	0.6		
15	CG4995	1	-0.4	-0.6		
16	CG1622	1	-0.4	-0.7		
17	lmgA + lmgB	1	-0.2	-0.2		
18	CG18336	1	-0.4	-0.5		
19	CG2267	1	-0.2	-0.2		
20	Rab4	1	-0.2	0		
21	CG6873	1	1.4	2.4		
22	Cyp6d5	1	-0.3	-0.3		
23	Peritrophin-15a	1	-0.2	-0.5		
24	Psc	1	-0.4	-0.3		
25	Ssl2	1	-0.4	-0.1		
26	Vps39	1	-0.2	0		
27	Cpr35B	1	-0.3	-0.6	-0.6	-0.4
28	Ask1	1	-1.2	-0.8		
29	CG18048	1	-0.3	-0.6		
30	sut2	1	-0.4	-0.3		
31	CG33116	1	-0.3	0.6		
32	CG42521	1	-0.3	-0.5		
33	CG17111	1	-0.3	-0.2		
34	CG42514	1	-0.1	0.9		
